The term AC50 denotes the concentration at which the activity in the assay is half-maximal.

The assay can be described thus: qHTS Assay for Lipid Storage Modulators in Drosophila S3 Cells.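 As to cell number change: cells counted by Cell Tracker Red CMTPX staining in the red channel.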 To be noted: BODIPY lipid droplet fluorescence, 18-24 h; for cell number change: measured here: cell count max response, cells fed with added oleic acid. In short, it runs like this: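 Drosophila S3 cells got compounds at several concentrations plus oleic acid (400 uM solution). Laser-scanning cytometry with 488 nm excitation read lipid droplets at 500-530 nm and cells at 575-640 nm. Percent activity was relative to 20 uM Triacsin C.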
(In qHTS, concentration-response curves come from the screen itself.)

[1] abbreviates: measured here: lipid fluorescence (Fed channel) AC50, cells fed with added oleic acid.
The mark [2] stands for this setting: measured here: cell number channel AC50, cells fed with added oleic acid.

Some of the results follow. Further columns of the screen follow, without active or inactive calls. The list favours compounds with an active or inconclusive main result. The note in brackets gives the kind of curve behind each potency; many fits are weak.

Take `Cc1cccc(NC(=O)/C(C#N)=C/c2ccccc2Cl)n1`: the cell number change was -2.13%. The AC50 under setting [1] was 3.66 µM [falling, partial curve].

Take `CCC(C)NC(=O)C1CCN(S(=O)(=O)c2ccc3c(c2)CC(C)N3C(C)=O)CC1` (stereo unspecified): the cell number change was determined as 14.1%. In addition, the AC50 under setting [1] was 9.2 µM [falling, single point].

As to `c1ccc(C2c3[nH]c4ccccc4c3CCN2Cc2cccn2-c2cccnc2)nc1` (stereo unspecified), the cell number change is 5.34%. Also, under setting [1], the AC50 is 0.0164 µM [rising, full curve, poor fit].

Consider `CC1CCc2c(sc(NC(=O)COC(=O)c3ccc(O)cc3)c2C#N)C1` (stereo unspecified), for which the cell number change worked out at 21.8%. Also, the AC50 under setting [2] is 0.092 µM [rising, full curve, poor fit].

As to `CCC1=NN2C(=N)/C(=C\c3cccn3-c3cccc(Cl)c3)C(=O)N=C2S1`, the cell number change was -53.6%.

In the case of `O=C(CCNS(=O)(=O)c1ccc(Br)cc1)NC1CCC(O)CC1` (stereo unspecified), the cell number change worked out at 36%. Besides, the AC50 under setting [2] was 0.82 µM [rising, full curve, poor fit]. Further, the AC50 under setting [1] was 23.1 µM [rising, partial curve, poor fit].

Regarding `COc1ccc(C(C(=O)NC2CCCC2)N(Cc2ccccc2)C(=O)c2nsc(Cl)c2Cl)cc1` (stereo unspecified), the cell number change was -29.5%. In addition, the half-maximal activity concentration (AC50) under setting [1] is 0.13 µM [falling, full curve, poor fit].

Take `O=C(Nc1ccc(S(=O)(=O)N2CCCCC2)cc1)c1ccccc1Cl`: the cell number change is -15.9%. In addition, under setting [1], the AC50 was 0.103 µM [falling, full curve, poor fit].

For the molecule `CC1CCN(S(=O)(=O)c2ccc3c(c2)N(CC(=O)NCCCOC(C)C)C(=O)CO3)CC1`, the cell number change was -7.65%.

Consider `O=C(Cn1c(=O)oc2ccc(Cl)cc21)Nc1ccon1`, for which the cell number change was 21.4%.

For the molecule `CCn1cc(C(=O)NCc2cccs2)c(=O)c2ccc(C)nc21`, the cell number change is -5.42%. Besides, the half-maximal activity concentration (AC50) under setting [2] was 0.00461 µM [falling, full curve, poor fit]. Also, the AC50 under setting [1] is 6.51 µM [falling, single point].

Consider `COc1cccc(NC(=O)c2ccc3c(c2)N(CC(=O)N2CCOCC2)C(=O)C(C)(C)O3)c1`, for which the cell number change is 1.39%. Also, the concentration at half-maximal activity (AC50) under setting [1] is 16.4 µM [rising, partial curve].

Regarding `CC(=O)N1CCN(CC(O)COc2ccc(OCc3ccccc3)cc2)CC1` (stereo unspecified), the cell number change was -4.15%. Besides, the concentration at half-maximal activity (AC50) under setting [1] is 13 µM [rising, single point].

For the molecule `Cc1[nH]c(=O)[nH]c(=O)c1/C=N\NC(=O)CCc1ccc(OC(C)C)cc1`, the cell number change stood at 21.2%.

With `O=[N+]([O-])c1nn(-c2ccc(Cl)cc2)n(O)c1=NCc1cccnc1`, the cell number change turned out to be 64.5%. Under setting [2], the half-maximal activity concentration (AC50) is 29.1 µM [rising, single point].

Turning to `CCCCOc1ccc(C(=O)NCC(=O)N2CCN(C(=O)c3ccco3)CC2)cc1`, the cell number change was -21.3%.

For `O=C(COc1ccccc1)NC1CCS(=O)(=O)C1` (stereo unspecified), the cell number change was -10.7%. Also, the concentration at half-maximal activity (AC50) under setting [1] is 1.16 µM [falling, full curve, poor fit].

Regarding `CCCCN(Cc1ccccc1)C(=O)c1cnc2n(c1=O)CCS2`, the cell number change was -0.498%. Further, the concentration at half-maximal activity (AC50) under setting [1] was 23.1 µM [rising, single point].

On to `CCOc1ccc2c(c1)-c1c(ssc1=S)C(C)(C)N2`, for which the cell number change was -92.5%. Further, under setting [2], the AC50 was 11.6 µM [falling, partial curve].

As for `CC(C)CCn1nnnc1C(c1ccccc1F)N1CCC(C(N)=O)CC1` (stereo unspecified), the cell number change worked out at 12.4%. Besides, under setting [1], the half-maximal activity concentration (AC50) was 29.1 µM [falling, single point].

Regarding `Cc1ccc(-n2c(NN)nc3ccccc3c2=O)c(C)c1`, the half-maximal activity concentration (AC50) under setting [1] was 18.4 µM [rising, partial curve].

For the molecule `O=C(CSc1ncnc2ccccc12)c1cccs1`, the cell number change turned out to be 31.9%. For the same molecule, the AC50 under setting [2] was 1.03 µM [rising, partial curve, poor fit]. Further, the AC50 under setting [1] was 5.17 µM [rising, full curve].

As to `Cc1ccc([N+](=O)[O-])cc1Nc1nc(N2CCCC2)nc(N2CCCC2)n1`, the cell number change was found to be 12%. In addition, the half-maximal activity concentration (AC50) under setting [1] was 6.51 µM [falling, single point].

As to `CN(Cc1cnccn1)C(=O)CC1C(=O)NCCN1Cc1c(F)cccc1Cl` (stereo unspecified), the cell number change stood at 12.4%.

Turning to `CN(CC(=O)Nc1ccc2c(c1)OCCO2)S(=O)(=O)c1ccc(Br)s1`, the concentration at half-maximal activity (AC50) under setting [1] is 6.51 µM [falling, single point].

Take `CN(Cc1ccccc1)S(=O)(=O)c1ccc2[nH]c(=O)oc2c1`: the cell number change is -3.29%.

As for `CC(CCc1ccccc1)NC(=O)C(Cc1ccccc1)NS(=O)(=O)c1cccs1` (stereo unspecified), the cell number change worked out at 39.6%. Further, the AC50 under setting [2] was 9.2 µM [rising, partial curve, poor fit].

In the case of `CCN(c1cccc(C)c1)S(=O)(=O)c1ccc2[nH]c(=O)c(=O)[nH]c2c1`, the AC50 under setting [1] was 20.6 µM [falling, partial curve].

`O=C(COC(=O)c1ccc2c(=O)n3c(nc2c1)CCC3)Nc1ccc(OC(F)F)cc1`: the cell number change was 12.3%.

Take `COc1ccc(Cc2nc3ccc(C(=O)N(C)Cc4cc(C)[nH]n4)cc3o2)cc1OC`: the cell number change was 3.67%.

Take `COc1cc(/C=N/NC(=O)CSc2nc3ccccc3n2C)cc(OC)c1OC`: under setting [1], the AC50 is 0.411 µM [rising, single point].

For `O=[N+]([O-])c1ccc2cn(-c3ccccc3)nc2c1`, the AC50 under setting [1] was 32.6 µM [falling, single point].

`CCOc1ccc(NC(=O)CN(C)C(=O)c2csc3c2CCCC3)cc1OCC`: the cell number change was found to be 4.54%. For the same molecule, the AC50 under setting [1] is 0.651 µM [rising, partial curve].

For `COC(=O)c1ccc(-n2nnnc2SCC(=O)NCc2cccc(C(=O)O)c2)cc1`, the cell number change is 16.8%. Also, the half-maximal activity concentration (AC50) under setting [1] was 18.4 µM [falling, single point].

Turning to `COc1ccc(-c2cc(C(F)(F)F)n3nc(C(=O)O)cc3n2)cc1OC`, the cell number change is -10.3%.

In the case of `Cc1c(OCC(=O)OC(C)C)ccc2c3c(c(=O)oc12)CCC3`, the cell number change came to 9.04%. The concentration at half-maximal activity (AC50) under setting [2] was 6.51 µM [falling, single point].

As for `Cc1ccc(-n2nnc3c(=O)n(CC(=O)NCc4ccco4)cnc32)cc1`, the cell number change was -14.7%. In addition, the concentration at half-maximal activity (AC50) under setting [2] is 1.3 µM [rising, full curve, poor fit].

With `Cc1cc(C)c(C#N)c(SCSCc2ccccc2)n1`, the cell number change worked out at 330%. In addition, the AC50 under setting [2] is 14.6 µM [rising, partial curve]. The AC50 under setting [1] is 29.1 µM [rising, partial curve].

For the molecule `CCCOc1ccc(OC(=O)Cc2ccc(OC)c(S(=O)(=O)N3CCOCC3)c2)cc1`, the cell number change was -31.9%. In addition, the concentration at half-maximal activity (AC50) under setting [2] is 20.6 µM [falling, single point]. Further, the AC50 under setting [1] is 20.6 µM [falling, single point].

For the molecule `Cc1cc(-c2ccc(C)c(S(=O)(=O)NCCCN3CCN(c4ccccc4F)CC3)c2)on1`, the cell number change is -22.1%. The AC50 under setting [1] was 20.6 µM [falling, single point].

`C=CCSc1nnc(-c2cccnc2)o1`: the cell number change is -23.5%. Moreover, the AC50 under setting [1] is 29.1 µM [falling, single point].

In the case of `CN(C)S(=O)(=O)c1ccc(NC(=O)C2COc3ccccc3O2)cc1` (stereo unspecified), the cell number change was -28.8%. The AC50 under setting [1] is 29.1 µM [falling, single point].

As for `O=C(COC(=O)Cn1cc(C(F)(F)F)ccc1=O)NCc1ccccc1`, the cell number change is 10.5%.

As to `Cc1cnc(NC(=O)Nc2ccc(Cl)cc2)s1`, the cell number change was -36.6%. Besides, the AC50 under setting [2] is 29.1 µM [falling, single point]. The concentration at half-maximal activity (AC50) under setting [1] was 29.1 µM [falling, single point].

For `COc1cccc(CNC(=O)c2ccc(NC(=O)C3=CSCCO3)cc2)c1`, the cell number change was determined as 1.14%. In addition, under setting [1], the concentration at half-maximal activity (AC50) is 11.6 µM [rising, single point].

As to `CCn1c(O)c(N=NC(=O)Cn2ccc(C(F)(F)F)n2)c2ccccc21`, the cell number change was -47.1%. For the same molecule, under setting [1], the AC50 is 6.51 µM [rising, full curve].

Regarding `CCc1ccc(NC(=S)NC2CCN(Cc3ccccc3)CC2)cc1`, the cell number change was -2.97%. Besides, the half-maximal activity concentration (AC50) under setting [1] was 25.9 µM [falling, partial curve, poor fit].

Take `O=C(Cc1c(F)cccc1Cl)NNC(=S)Nc1ccc(S(=O)(=O)Nc2ncccn2)cc1`: the cell number change came out at 8.36%. The half-maximal activity concentration (AC50) under setting [1] was 31.6 µM [rising, single point].

As to `Cc1ccc(-n2c(C)nc3c(cnn3-c3ccc(F)cc3)c2=O)cc1`, the cell number change was -23.6%. Besides, the AC50 under setting [1] is 20.6 µM [falling, partial curve].

On to `Cn1cc(Cl)c(C(=O)NC(=S)Nc2sc3c(c2C#N)CCCCC3)n1`, for which the cell number change is 29.5%. The AC50 under setting [2] is 1.16 µM [rising, full curve]. Further, the AC50 under setting [1] was 4.11 µM [rising, partial curve].

Regarding `Cc1ccccc1NC(=O)COC(=O)c1cccc(S(=O)(=O)N2CCCCC2)c1`, the cell number change is -12.7%. Moreover, the AC50 under setting [1] was 3.26 µM [rising, single point].

In the case of `Cc1ccc2c(CC(=O)Nc3nc(C)cs3)coc2c1`, the cell number change is -20.4%.

As for `c1csc(CNc2nc3ccccc3n2CCN2CCOCC2)c1`, the cell number change is -2.59%. In addition, the concentration at half-maximal activity (AC50) under setting [1] is 0.58 µM [falling, single point].

Consider `COC(=O)c1cc(NC(=S)N2CCN(C(=O)C3CCCO3)CC2)cc(C(=O)OC)c1` (stereo unspecified), for which the cell number change is -19.2%. In addition, under setting [1], the AC50 was 0.366 µM [falling, partial curve, poor fit].

In the case of `C=CCn1c(SCC(=O)N2CCOCC2)nc2ccccc2c1=O`, the cell number change was -15.6%. Moreover, the AC50 under setting [1] was 29.1 µM [rising, single point].

In the case of `NC(=O)c1cc(Cc2ccccc2)sc1NC(=O)c1ccco1`, under setting [2], the concentration at half-maximal activity (AC50) is 2.06 µM [rising, partial curve].

On to `COc1ccccc1-c1cc2nc(C)c(CCC(=O)NCc3ccco3)c(C)n2n1`, for which the cell number change worked out at 40%. Besides, under setting [2], the half-maximal activity concentration (AC50) was 29.1 µM [rising, single point]. Further, under setting [1], the AC50 is 0.58 µM [rising, single point].

As to `CCN(CCO)c1ncnc2c1sc1nc(C(C)C)c3c(c12)CC(C)(C)OC3`, the cell number change was -31.6%. The AC50 under setting [2] is 20.6 µM [falling, single point]. The concentration at half-maximal activity (AC50) under setting [1] is 23.1 µM [rising, partial curve, poor fit].

Take `Cc1cc(C)n2nc(-c3ccc(Cl)cc3)cc2n1`: the cell number change is 18.1%. For the same molecule, the AC50 under setting [1] is 0.58 µM [rising, single point].

As to `CCOC(=O)[C@H](O)[C@@H](O)c1cccc([C@H](O)[C@@H](O)C(=O)OCC)c1`, the cell number change was 9.71%.

Consider `Cc1ccc(NC2=C(NCCO)C(=O)c3ccccc3C2=O)cc1`, for which the cell number change is -80.3%. The AC50 under setting [2] was 5.17 µM [falling, full curve]. For the same molecule, the concentration at half-maximal activity (AC50) under setting [1] is 4.61 µM [falling, partial curve].

Take `CC1CN(c2ccc(NC(=O)c3ccco3)cc2C(=O)O)CC(C)O1` (stereo unspecified): the cell number change was 12.7%. Besides, the AC50 under setting [2] is 6.51 µM [falling, single point]. Besides, under setting [1], the concentration at half-maximal activity (AC50) is 5.8 µM [falling, single point].

The values are drawn from PubChem BioAssay AID2685 (National Center for Advancing Translational Sciences (NCATS), 2010).
